Measured values published in US20140066362A1, “METHOD FOR TREATING INFECTIONS BY TARGETING MICROBIAL H2S-PRODUCING ENZYMES” (NEW YORK UNIVERSITY, priority 2011, published 2014).
For at least one compound, name, drawing or mass did not settle the structure.

How the values were obtained:
3MST = assay: H2S detection with lead acetate paper strips (PbS staining); type: cell-based, E. coli; settings: Asp 3.2 mM, 18 hours culture
E. coli cells = type: cell-based; settings: pretreatment for 3 min, 2,2′-dipyridyl 0.05 mM or thiourea 15 mM, then Gm

Row | Compound | Effect on H2S production (PbS staining) (3MST) | Effect on toxicity of Gm (E. coli cells)
1 | N[C@@H](CC(=O)O)C(=O)O [Asp, aspartate] | greatly decreased or eliminated PbS staining | –
2 | NC(N)=S [thiourea] | – | substantially decreased the toxicity of Gm
